The target in the assay is T1, FLAG-4E-T 1-900 (human) (UniProt Q9NRA8).
T1 sequence: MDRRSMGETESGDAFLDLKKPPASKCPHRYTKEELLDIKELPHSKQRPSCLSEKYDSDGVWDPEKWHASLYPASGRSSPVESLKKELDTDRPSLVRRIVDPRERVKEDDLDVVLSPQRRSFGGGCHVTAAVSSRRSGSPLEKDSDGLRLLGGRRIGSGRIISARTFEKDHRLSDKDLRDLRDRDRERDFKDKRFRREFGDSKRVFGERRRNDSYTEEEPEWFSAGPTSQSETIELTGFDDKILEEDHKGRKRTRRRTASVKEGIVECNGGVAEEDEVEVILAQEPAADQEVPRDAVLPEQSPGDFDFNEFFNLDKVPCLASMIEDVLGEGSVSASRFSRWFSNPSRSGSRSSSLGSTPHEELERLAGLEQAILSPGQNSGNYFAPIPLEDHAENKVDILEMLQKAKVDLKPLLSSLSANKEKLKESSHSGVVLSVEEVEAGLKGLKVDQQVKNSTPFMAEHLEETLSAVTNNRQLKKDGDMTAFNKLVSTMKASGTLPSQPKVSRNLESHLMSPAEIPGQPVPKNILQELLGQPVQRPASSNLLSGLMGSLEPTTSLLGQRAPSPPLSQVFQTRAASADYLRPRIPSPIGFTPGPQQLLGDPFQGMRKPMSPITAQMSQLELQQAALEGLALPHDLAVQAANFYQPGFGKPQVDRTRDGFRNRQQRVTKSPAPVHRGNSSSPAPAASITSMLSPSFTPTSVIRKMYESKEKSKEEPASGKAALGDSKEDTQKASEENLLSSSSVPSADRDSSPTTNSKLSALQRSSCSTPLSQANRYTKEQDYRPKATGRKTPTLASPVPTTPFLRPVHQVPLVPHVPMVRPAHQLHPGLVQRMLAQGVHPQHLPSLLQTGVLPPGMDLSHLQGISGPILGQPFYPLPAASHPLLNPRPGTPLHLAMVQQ
As to the kind of experiment: co-IP; anti-FLAG M2 beads on lysates of transfected HEK293T cells, eluted with SDS loading buffer, western blot; lysates with or without RNase A (40 μg/ml); in some panels cells also given siRNA against β-globin, DDX6, UNR or unrip, or co-transfected with HA-DDX6. For orientation: Immunoblotting shows a protein as a band on a membrane.

Sequences of proteins named here, by UniProt entry; tags and fusion partners are left off.
UniProt Q8ND56: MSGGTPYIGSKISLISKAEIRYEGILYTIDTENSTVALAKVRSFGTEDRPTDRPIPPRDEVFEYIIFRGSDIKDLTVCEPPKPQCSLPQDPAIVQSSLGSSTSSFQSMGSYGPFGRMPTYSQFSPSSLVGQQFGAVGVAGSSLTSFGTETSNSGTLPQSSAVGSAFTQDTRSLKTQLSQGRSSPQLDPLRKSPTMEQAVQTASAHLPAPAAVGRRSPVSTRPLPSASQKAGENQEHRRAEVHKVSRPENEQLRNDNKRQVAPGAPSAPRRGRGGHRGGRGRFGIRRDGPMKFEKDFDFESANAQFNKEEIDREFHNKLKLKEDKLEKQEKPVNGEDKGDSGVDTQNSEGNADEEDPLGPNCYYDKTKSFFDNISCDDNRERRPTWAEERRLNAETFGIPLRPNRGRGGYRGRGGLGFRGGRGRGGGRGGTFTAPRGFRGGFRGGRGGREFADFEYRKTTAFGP

No constants are given. Whether binding was seen depends on the method and setting. In cells and extracts the contact can be indirect. Some binding calls cover weakened binding; strength is not graded here. Tags and fused reporters may be left off the sequences shown.

For one substance, binding results are on record in publication PMC5291280.

Turning to “LSM14A, endogenous (from UniProt Q8ND56 1-463)”, the binding result is “binds”.
